Measured values reported in article PMC4732300.
No constants are given. Whether binding was seen depends on the method and setting. Binding seen in cells or lysates may run through a third protein. Some results given as binding are weak or reduced against the parent protein; the word gives no strength. For part of these data: Where a sequence is shown, tags or fusion partners need not be part of it. Values belong to the molecule of their own block, whether it stands above or below them.

By UniProt entry, the sequences of proteins in these tests, tags left out.
UniProt Q6PFY1: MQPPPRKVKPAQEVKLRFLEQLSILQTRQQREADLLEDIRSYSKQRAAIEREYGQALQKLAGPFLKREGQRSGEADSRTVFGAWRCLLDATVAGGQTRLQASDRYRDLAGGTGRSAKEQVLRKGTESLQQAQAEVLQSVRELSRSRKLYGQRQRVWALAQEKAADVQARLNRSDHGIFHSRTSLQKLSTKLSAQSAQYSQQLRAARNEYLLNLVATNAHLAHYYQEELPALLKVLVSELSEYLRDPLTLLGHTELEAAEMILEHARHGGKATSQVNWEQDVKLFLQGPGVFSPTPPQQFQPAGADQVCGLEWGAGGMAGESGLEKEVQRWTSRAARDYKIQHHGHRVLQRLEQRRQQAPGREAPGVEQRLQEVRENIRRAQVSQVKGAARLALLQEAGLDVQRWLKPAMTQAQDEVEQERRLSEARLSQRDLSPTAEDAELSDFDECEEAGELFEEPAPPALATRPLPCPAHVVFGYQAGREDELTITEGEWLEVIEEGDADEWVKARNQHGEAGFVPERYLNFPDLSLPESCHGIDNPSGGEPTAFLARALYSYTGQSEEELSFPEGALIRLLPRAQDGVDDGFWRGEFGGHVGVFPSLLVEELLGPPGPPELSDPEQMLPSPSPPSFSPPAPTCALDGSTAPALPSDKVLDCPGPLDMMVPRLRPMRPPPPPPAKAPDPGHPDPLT
UniProt Q91VH2: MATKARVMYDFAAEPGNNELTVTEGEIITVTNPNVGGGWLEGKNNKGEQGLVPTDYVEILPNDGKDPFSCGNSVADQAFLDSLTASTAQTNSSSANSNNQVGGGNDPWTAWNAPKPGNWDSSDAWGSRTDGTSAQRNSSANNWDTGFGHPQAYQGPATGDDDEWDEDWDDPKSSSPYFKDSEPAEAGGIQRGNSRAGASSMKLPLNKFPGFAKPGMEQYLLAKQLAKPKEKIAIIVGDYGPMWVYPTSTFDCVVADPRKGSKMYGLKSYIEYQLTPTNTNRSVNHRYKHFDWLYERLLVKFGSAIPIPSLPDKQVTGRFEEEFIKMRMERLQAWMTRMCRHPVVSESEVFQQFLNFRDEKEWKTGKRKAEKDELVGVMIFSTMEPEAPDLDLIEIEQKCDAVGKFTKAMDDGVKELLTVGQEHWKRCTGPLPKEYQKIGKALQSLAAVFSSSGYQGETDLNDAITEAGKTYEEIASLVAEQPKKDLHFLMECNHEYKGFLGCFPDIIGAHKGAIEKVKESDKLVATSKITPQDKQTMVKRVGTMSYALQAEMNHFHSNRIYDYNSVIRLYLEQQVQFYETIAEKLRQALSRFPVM

Experiments:
Assay in all cases: co-IP; COS-7 cells co-transfected; lysis in 50 mM Tris-HCl pH 7.4, 150 mM NaCl, 1 mM EDTA, 1% Triton X-100; IP with anti-FLAG and, reciprocally, with antibody against the fluorescent tag, overnight at 4°C, Protein A/G agarose; western blot
[1] = molecular target: FLAG–NWK2 (expressed in COS-7 cells) (mouse) (UniProt Q6PFY1)
EGFP–SNX33 (mouse) = molecular target: T1, EGFP–SNX33 (mouse) (UniProt Q4VAA7)
T1 sequence: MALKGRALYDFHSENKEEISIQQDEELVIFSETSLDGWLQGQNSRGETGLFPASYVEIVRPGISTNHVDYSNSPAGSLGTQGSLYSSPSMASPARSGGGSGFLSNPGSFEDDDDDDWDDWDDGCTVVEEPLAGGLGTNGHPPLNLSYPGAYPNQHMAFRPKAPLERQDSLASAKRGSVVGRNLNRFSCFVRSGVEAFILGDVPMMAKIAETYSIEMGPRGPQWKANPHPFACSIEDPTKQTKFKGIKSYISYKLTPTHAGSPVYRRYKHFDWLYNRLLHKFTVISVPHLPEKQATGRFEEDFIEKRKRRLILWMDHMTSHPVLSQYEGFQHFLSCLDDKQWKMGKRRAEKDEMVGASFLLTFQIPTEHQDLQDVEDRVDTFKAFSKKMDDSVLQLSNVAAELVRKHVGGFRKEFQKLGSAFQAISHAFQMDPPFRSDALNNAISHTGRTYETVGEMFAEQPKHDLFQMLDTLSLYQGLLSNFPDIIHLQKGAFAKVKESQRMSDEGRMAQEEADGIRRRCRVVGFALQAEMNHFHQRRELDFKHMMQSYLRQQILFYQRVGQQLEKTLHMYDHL

Tomato–SNX18 = molecular target: T2, Tomato–SNX18 (UniProt Q91ZR2)
T2 sequence: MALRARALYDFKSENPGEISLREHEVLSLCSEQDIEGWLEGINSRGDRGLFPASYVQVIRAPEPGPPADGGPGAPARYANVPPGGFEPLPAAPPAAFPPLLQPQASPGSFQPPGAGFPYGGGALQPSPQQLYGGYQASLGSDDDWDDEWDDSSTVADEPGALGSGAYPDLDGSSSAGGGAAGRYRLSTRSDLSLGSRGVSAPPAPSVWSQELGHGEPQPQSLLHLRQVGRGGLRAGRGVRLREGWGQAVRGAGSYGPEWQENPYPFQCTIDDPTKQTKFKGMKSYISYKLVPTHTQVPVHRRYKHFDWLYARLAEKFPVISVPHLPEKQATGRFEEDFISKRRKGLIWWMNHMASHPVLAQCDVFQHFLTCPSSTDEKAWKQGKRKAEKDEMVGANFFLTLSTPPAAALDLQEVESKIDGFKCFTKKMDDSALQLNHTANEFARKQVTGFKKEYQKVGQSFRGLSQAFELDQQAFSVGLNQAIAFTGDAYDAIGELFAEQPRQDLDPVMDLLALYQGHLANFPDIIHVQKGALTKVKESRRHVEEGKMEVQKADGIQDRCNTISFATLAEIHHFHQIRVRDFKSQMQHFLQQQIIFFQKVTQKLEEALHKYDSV

mCherry–SNX9 = mCherry–SNX9 (UniProt Q91VH2)

binding [1]: binds
Molecule: mCherry–SNX9 (from UniProt Q91VH2 1-595)

binding (EGFP–SNX33 (mouse)): binds
binding (Tomato–SNX18): binds
binding (mCherry–SNX9): binds
Molecule: FLAG–NWK2 (expressed in COS-7 cells) (from UniProt Q6PFY1 1-688)

binding [1]: binds
B1: Tomato–SNX18 (protein, UniProt Q91ZR2 1-614)
chain: T2 sequence

binding [1]: binds
B2: EGFP–SNX33 (protein, UniProt Q4VAA7 1-574)
chain: T1 sequence
